Our source for the binding signal values is paper PMC7862700.

Protein sequences, listed by entry. Tags and fused reporters are not part of them. Lines headed by an entry give the natural chain unless they say otherwise; changes in a name come on top.
UniProt P41212: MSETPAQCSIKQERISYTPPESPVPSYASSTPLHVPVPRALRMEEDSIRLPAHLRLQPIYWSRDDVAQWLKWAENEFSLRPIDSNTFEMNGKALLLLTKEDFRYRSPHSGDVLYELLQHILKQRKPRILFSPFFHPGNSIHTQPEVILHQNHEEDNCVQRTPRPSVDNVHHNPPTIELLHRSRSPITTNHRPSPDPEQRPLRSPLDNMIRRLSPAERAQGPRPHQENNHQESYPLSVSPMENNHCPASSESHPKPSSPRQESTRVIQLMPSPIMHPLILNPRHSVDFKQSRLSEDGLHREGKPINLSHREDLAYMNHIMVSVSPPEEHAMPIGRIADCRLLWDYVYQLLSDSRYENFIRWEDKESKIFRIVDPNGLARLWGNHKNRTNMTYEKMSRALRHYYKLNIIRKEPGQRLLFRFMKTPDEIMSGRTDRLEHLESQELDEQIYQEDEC

Only a part is listed here, and it is no random draw. At the low end of the ranking the order means little.

For the assay, the target named is ETV6 (UniProt P41212). Briefly: DAPPL (digital affinity profiling via proximity ligation, sequencing). Conditions: 10 mM Tris-HCl pH 7.5, 50 mM NaCl, 1 mM DTT, 4% glycerol, room temperature, 30 min; GST-TFs on glutathione beads, 16-mer random dsDNA library, 0.1% …; high values mean tight binding; double strand, one strand shown; scale: fold enrichment (6-mer frequency, TF over GST control).
Take CATCTC: the binding signal amounted to 1.26.
As for TATCTT, the figure is 1.18; as for TTTTGG, 1.42; as for ATTGAG, 0.979.
Then AAAGGG, with 1.1.
Regarding GTATAC, the binding signal is 1.19.
In the case of AAAACG, the binding signal stood at 1.25.
Sequence GCCTGC showed a binding signal of 1.05.
For the sequence ACTGCA, the binding signal came out at 1.2.
Then CTTTAG, with 1.21; and ATAAGA, with 1.07.
In turn, AATCTC had a binding signal of 1.26.
On to TAAACT, for which the binding signal amounted to 1.13.
The sequence GCGAAT yielded a binding signal of 0.98.
The sequence GTACGA had a binding signal of 1.05.
In the case of ACTTAG, the binding signal was 1.14.
Then CTTCGT, with 1.31; and ACTCAC, with 1.22; and GCTACA, with 1.17.
The sequence CATGAC had a binding signal of 1.18.
As to TGCCAC, the binding signal was found to be 1.24.
Consider GAAGCG, for which the binding signal stood at 1.43.
Then CACTGT, with 1.05; and TGTGGC, with 1.19.
As for CTAGCC, the figure is 0.921; as for TGCATG, 1.08; as for CAAACT, 1.21.
As for CGCTTA, the figure is 1.11; as for GCTGGT, 1.13; as for CAAACA, 1.1.
TGACAT came in with a binding signal of 1.37.
TTACAG registered a binding signal of 1.19.
Turning to TGTCAT, the binding signal stood at 1.11.
Then CTGATT, with 1.17; and CTTCAC, with 1.43.
ACGGAA had a binding signal of 2.14.
In turn, ATTTAA registered a binding signal of 1.21.
Consider TGATGT, for which the binding signal was determined as 1.22.
Then AGTAAT, with 1.15.
Regarding AAAGCA, the binding signal worked out at 1.05.
